Data from the supplement of paper PMC10849652.
The list shows a part of the results. Residues, ends and D or L forms follow the SMILES beside them. *: point of attachment. Cbz = O=C(OCc1ccccc1)*

Sequences of proteins named here, by UniProt entry; tags and fusion partners are left off. A change or cut given only in a name is not applied to a line headed by its entry.
UniProt Q7Z7H5: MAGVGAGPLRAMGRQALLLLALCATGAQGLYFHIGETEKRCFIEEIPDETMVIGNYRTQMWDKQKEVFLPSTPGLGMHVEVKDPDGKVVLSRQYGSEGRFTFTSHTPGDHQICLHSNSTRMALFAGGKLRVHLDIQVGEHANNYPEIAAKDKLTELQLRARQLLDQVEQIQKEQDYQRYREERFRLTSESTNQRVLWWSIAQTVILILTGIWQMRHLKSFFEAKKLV
UniProt Q8NBN3: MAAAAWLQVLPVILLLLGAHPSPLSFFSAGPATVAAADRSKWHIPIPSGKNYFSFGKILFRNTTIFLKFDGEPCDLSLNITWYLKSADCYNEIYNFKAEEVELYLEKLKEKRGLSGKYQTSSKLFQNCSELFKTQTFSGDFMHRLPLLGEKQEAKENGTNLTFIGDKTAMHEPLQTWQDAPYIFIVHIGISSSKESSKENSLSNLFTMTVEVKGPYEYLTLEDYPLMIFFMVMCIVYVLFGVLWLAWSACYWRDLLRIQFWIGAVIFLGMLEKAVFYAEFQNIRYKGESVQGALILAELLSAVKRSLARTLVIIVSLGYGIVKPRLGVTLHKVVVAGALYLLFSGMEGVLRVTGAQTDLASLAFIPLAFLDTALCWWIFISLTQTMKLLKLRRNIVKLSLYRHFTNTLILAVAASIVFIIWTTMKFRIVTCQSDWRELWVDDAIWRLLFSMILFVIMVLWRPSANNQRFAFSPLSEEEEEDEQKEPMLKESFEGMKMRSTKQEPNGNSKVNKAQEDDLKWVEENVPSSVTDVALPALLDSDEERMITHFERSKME
UniProt O15321, whole entry, looked up: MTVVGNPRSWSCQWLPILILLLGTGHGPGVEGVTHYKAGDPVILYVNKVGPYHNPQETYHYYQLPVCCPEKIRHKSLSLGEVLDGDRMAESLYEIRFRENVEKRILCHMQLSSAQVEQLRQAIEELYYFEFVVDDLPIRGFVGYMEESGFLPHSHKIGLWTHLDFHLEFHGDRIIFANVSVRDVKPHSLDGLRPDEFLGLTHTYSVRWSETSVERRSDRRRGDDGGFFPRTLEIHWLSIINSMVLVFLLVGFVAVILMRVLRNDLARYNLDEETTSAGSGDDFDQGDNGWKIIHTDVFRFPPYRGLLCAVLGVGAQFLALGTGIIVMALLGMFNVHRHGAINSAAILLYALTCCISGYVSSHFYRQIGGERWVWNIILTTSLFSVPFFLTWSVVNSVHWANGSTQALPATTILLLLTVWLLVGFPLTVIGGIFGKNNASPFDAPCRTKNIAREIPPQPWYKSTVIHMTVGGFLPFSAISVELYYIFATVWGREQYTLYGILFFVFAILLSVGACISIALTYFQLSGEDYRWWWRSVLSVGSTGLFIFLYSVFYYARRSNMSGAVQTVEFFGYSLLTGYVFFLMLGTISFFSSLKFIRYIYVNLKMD
UniProt Q9Y4G6: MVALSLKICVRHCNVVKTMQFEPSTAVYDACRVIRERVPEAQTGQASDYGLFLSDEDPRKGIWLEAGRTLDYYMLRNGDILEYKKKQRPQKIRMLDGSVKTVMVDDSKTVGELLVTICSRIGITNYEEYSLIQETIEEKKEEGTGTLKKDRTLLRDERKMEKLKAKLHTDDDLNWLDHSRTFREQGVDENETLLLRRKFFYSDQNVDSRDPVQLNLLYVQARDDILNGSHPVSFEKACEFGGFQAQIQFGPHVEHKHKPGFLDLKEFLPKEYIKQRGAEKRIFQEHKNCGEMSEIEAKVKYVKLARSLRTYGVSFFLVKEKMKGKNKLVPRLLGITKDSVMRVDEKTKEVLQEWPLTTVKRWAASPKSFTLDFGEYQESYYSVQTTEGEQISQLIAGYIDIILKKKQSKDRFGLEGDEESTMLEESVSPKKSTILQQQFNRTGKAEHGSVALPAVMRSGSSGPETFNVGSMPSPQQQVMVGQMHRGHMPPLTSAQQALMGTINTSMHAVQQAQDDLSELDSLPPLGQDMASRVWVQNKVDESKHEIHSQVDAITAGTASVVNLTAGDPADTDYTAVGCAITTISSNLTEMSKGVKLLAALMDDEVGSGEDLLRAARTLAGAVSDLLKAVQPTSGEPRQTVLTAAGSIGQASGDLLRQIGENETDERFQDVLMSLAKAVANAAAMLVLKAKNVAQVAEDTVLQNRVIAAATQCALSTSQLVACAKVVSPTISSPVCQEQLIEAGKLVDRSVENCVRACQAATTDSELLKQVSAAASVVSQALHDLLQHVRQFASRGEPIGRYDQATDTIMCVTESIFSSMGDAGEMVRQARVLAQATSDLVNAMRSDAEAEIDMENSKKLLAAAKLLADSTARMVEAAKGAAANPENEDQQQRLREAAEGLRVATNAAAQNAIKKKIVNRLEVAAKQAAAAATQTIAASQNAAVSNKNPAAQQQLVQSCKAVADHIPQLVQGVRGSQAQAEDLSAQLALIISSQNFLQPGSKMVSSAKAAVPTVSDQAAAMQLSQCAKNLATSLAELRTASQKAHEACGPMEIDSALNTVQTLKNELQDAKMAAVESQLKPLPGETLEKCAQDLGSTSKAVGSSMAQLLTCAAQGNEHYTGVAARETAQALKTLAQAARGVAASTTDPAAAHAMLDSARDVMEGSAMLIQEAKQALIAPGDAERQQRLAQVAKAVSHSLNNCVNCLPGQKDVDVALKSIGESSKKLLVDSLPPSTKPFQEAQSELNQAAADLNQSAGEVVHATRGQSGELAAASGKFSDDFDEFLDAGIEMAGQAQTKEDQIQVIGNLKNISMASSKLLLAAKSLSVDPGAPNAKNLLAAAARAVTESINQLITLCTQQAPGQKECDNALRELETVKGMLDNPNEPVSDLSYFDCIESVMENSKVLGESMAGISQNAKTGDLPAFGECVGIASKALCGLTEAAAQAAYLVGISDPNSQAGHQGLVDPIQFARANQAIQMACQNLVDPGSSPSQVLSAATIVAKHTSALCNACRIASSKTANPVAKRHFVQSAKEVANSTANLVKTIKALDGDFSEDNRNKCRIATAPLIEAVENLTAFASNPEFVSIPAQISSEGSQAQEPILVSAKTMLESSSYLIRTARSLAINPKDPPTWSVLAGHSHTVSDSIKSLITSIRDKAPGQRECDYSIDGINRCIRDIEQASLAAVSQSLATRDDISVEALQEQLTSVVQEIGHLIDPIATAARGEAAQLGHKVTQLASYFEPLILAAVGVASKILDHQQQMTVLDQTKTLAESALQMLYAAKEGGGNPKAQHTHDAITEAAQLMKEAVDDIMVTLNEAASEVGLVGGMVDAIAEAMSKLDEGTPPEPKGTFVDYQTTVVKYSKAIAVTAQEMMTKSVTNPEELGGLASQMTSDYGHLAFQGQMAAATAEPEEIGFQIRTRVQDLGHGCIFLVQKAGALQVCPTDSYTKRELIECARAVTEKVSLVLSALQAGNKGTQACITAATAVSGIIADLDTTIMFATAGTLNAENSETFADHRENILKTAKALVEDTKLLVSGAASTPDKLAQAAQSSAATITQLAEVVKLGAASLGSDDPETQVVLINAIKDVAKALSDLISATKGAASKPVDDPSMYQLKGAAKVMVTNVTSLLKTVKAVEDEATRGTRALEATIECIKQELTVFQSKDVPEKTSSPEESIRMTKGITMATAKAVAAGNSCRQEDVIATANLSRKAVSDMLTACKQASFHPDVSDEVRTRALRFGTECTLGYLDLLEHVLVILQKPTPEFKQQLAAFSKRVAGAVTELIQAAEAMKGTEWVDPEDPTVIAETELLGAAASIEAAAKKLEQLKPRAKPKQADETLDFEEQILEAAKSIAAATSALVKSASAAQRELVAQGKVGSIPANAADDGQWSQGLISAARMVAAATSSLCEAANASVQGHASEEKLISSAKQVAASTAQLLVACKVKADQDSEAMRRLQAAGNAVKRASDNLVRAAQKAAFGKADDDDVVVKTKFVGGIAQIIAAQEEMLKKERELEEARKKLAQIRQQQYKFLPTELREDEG
UniProt Q9NWD8: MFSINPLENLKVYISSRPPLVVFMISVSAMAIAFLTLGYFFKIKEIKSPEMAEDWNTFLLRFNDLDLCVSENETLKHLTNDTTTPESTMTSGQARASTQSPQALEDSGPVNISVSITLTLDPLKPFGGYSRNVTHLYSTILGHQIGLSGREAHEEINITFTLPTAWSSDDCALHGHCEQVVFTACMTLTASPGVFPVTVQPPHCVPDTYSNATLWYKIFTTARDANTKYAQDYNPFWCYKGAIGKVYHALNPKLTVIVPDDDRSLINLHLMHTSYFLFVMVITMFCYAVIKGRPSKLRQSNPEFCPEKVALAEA
UniProt Q9BVC6: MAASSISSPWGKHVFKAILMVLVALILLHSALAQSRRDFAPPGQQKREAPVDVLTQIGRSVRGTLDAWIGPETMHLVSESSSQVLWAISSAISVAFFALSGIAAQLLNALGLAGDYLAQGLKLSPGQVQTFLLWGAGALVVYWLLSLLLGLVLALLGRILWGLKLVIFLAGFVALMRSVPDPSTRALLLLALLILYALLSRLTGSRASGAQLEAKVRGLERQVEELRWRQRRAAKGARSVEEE
UniProt Q9H0V1: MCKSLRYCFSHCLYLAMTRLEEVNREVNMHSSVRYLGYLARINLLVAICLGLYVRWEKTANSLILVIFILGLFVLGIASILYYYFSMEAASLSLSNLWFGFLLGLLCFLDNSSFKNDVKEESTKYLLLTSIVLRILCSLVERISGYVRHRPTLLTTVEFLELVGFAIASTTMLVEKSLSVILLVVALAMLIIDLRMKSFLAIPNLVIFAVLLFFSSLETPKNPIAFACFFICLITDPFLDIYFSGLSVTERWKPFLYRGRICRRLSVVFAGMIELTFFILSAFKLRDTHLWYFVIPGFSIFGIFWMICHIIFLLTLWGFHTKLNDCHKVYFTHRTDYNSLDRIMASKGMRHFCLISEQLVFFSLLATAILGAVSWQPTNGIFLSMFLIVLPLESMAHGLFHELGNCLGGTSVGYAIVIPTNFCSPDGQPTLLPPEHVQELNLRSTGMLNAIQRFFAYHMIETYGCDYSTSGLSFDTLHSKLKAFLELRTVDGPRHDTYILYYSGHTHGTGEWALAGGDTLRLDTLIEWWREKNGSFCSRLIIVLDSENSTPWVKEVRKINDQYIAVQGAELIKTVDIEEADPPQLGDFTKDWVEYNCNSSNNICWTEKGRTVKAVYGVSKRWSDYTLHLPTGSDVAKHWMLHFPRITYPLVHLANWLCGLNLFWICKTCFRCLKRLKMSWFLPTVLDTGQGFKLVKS
UniProt Q86UB9: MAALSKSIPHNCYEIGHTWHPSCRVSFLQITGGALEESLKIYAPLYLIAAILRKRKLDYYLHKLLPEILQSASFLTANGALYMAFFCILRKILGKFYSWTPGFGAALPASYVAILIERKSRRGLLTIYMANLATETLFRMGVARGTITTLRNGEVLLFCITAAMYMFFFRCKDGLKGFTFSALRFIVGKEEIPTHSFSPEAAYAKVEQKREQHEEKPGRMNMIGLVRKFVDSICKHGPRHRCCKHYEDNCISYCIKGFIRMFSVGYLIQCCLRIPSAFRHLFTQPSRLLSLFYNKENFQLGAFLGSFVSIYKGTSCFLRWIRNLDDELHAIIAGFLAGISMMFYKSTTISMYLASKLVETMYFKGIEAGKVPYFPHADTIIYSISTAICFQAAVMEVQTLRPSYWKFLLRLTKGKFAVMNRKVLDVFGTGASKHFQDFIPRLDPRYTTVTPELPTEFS
UniProt Q9UM00: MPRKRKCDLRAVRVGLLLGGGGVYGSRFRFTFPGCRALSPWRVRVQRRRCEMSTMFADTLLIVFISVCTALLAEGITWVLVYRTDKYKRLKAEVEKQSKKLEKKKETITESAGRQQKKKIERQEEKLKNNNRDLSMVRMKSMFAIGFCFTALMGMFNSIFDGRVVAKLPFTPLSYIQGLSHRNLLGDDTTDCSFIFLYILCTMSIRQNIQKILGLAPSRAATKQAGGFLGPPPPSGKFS
UniProt P42167: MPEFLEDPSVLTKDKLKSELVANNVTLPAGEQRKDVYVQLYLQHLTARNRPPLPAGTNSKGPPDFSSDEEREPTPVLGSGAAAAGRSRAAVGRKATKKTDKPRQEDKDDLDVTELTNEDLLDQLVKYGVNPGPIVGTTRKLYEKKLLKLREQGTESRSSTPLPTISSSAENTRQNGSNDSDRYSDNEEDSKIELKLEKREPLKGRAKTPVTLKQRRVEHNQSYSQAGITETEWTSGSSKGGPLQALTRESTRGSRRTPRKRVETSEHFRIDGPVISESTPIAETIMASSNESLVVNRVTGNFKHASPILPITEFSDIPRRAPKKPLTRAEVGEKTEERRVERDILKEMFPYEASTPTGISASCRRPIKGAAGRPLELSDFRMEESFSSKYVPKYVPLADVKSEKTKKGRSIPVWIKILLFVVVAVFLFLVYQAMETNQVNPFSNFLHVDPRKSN
UniProt Q96A57: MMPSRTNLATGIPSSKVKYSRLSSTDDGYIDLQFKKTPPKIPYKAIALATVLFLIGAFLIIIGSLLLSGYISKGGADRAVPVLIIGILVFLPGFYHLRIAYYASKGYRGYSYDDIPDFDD

Assays:
Test in all cases: log2 fold change, soluble protein after heating vs DMSO (PISA); higher = thermal stabilisation; K562 cells, 10 uM, 30 min; active = over 0.2 and 3.5 SD of the protein, either way, in both replicates (recomputed)
IRAK-1-4 Inhibitor I = compound: C1COCCN1CCN2C3=CC=CC=C3N=C2NC(=O)C4=CC(=CC=C4)[N+](=O)[O-] [IRAK-1-4 Inhibitor I]
How it was run: (§1)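 Soluble protein was defined as the supernatant after 21,000xg for 90 min. It came from K562 cells at 2×10^6 cells/mL given 10 μM compound for 30 min, heated in aliquots for 3 min across 48°C-58°C, pooled, and extracted in PBS with 0.5% NP-40 at 4°C, and was quantified by TMTpro 16plex LC-MS/MS with equalised channel sums. Thermal stability against control samples, from duplicates, is reported as log2 fold change.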

ibrutinib = compound: C=CC(=O)N1CCC[C@@H](n2nc(-c3ccc(Oc4ccccc4)cc3)c3c(N)ncnc32)C1 [ibrutinib]
How it was run: as §1

[1] = compound: CC(=O)c1cnc2ccc(-c3cc(Cl)c(O)c(Cl)c3)nc2c1N[C@H]1CC[C@H](CN(C)C)CC1
How it was run: as §1

ralimetinib = compound: CC(C)(C)Cn1c(N)nc2ccc(-c3[nH]c(C(C)(C)C)nc3-c3ccc(F)cc3)nc21 [ralimetinib]
How it was run: as §1

[2] = compound: CC(C)(O)CC(=O)NCCn1ccc2ncnc(Nc3ccc(Oc4cccc(C(F)(F)F)c4)c(Cl)c3)c21
How it was run: as §1

[3] = compound: CC(C)C1=C2N=C(C=C(N2N=C1)NCC3=CC=CC=C3)NCCCCCCN
How it was run: as §1

[4] = compound: CC(C)C[C@@H](C=O)NC(=O)[C@H](CC(C)C)NC(=O)[C@H](CC(C)C)NC(=O)OCc1ccccc1
How it was run: as §1

pinometostat = compound: CC(C)N(C[C@H]1O[C@@H](n2cnc3c(N)ncnc32)[C@H](O)[C@@H]1O)[C@H]1C[C@@H](CCc2nc3cc(C(C)(C)C)ccc3[nH]2)C1 [pinometostat]
How it was run: as §1

[5] = compound: CC1=C(C(CC(=O)N1)C2=CC=C(C=C2)C(F)(F)F)C(=O)NC3=C(C=C4C(=C3)C=NN4)F
How it was run: as §1

[6] = compound: CC1=C(C2=C(C=C1)C(=O)C3=CC=CC=C3N2CCCN)C
How it was run: as §1

[7] = compound: CC1=C(C=C(C=C1)NC(=O)C2=CC(=CC=C2)C(C)(C)C#N)NC3=CC4=C(C=C3)N=CN(C4=O)C
How it was run: as §1

[8] = compound: CC1=C(C=C(C=C1)NC(=O)C2=CC(=CC=C2)N(C)C)NC(=O)C3=CC=C(C=C3)O
How it was run: as §1

[9] = compound: CC1=CC=C(C=C1)SC2=C3C=C(SC3=CN=C2)C(=O)N
How it was run: as §1

[10] = compound: CC1=NC(=CC=C1)C2=C(N=C(N2)C(C)(C)C)C3=CC4=NC=CN=C4C=C3
How it was run: as §1

Nexturastat A = compound: CCCCN(Cc1ccc(C(=O)NO)cc1)C(=O)Nc1ccccc1 [Nexturastat A]
How it was run: as §1

vemurafenib = compound: CCCS(=O)(=O)Nc1ccc(F)c(C(=O)c2c[nH]c3ncc(-c4ccc(Cl)cc4)cc23)c1F [vemurafenib]
How it was run: as §1

[11] = compound: CCCS(=O)(=O)Nc1ccc(F)c(C(=O)c2c[nH]c3ncc(Cl)cc23)c1F
How it was run: as §1

[12] = compound: CCCc1cc(C)[nH]c(=O)c1CNC(=O)c1cc(-c2ccnc(N3CCN(C)CC3)c2)cc2c1cnn2C(C)C
How it was run: as §1

givinostat = compound: CCN(CC)Cc1ccc2cc(COC(=O)Nc3ccc(C(=O)NO)cc3)ccc2c1 [givinostat]
How it was run: as §1

barasertib = compound: CCN(CCCOc1ccc2c(Nc3cc(CC(=O)Nc4cccc(F)c4)[nH]n3)ncnc2c1)CCOP(=O)(O)O [barasertib]
How it was run: as §1

Measured: log2 fold change

TMED4 (UniProt Q7Z7H5)
inactive: IRAK-1-4 Inhibitor I 0.046 | ibrutinib 0.013 | [1] -0.046 | ralimetinib -0.082 | [2] -0.025 | [3] -0.026 | [4] -0.025 | pinometostat -0.039 | [5] 0.001 | [6] 0.033 | [7] 0.002 | [8] 0.028 | [9] 0.029 | [10] 0.057 | Nexturastat A -0.104 | vemurafenib 0.077 | [11] -0.01 | [12] 0.032 | givinostat 0.014 | barasertib -0.035

TMEM87A (UniProt Q8NBN3)
inactive: IRAK-1-4 Inhibitor I 0.027 | ibrutinib 0.007 | [1] -0.009 | ralimetinib -0.061 | [2] -0.016 | [3] -0.043 | [4] -0.013 | pinometostat -0.004 | [5] -0.038 | [6] -0.014 | [7] -0.023 | [8] 0.003 | [9] -0.019 | [10] 0.02 | Nexturastat A 0.013 | vemurafenib -0.023 | [11] -0.005 | [12] -0.053 | givinostat -0.004 | barasertib 0.012

TM9SF1 (UniProt O15321)
inactive: IRAK-1-4 Inhibitor I 0.228 | ibrutinib 0.243 | [1] -0.028 | ralimetinib 0.105 | [2] 0.153 | [3] 0.093 | [4] 0.033 | pinometostat 0.16 | [5] -0.048 | [6] -0.009 | [7] -0.035 | [8] 0.001 | [9] -0.036 | [10] -0.052 | Nexturastat A -0.008 | vemurafenib -0.019 | [11] -0.014 | [12] 0.05 | givinostat 0 | barasertib -0.095

TLN2 (UniProt Q9Y4G6)
inactive: IRAK-1-4 Inhibitor I -0.048 | ibrutinib -0.069 | [1] 0.073 | ralimetinib -0.038 | [2] -0.036 | [3] -0.016 | [4] 0.151 | pinometostat -0.018 | [5] -0.036 | [6] -0.036 | [7] 0.01 | [8] -0.003 | [9] 0.006 | [10] 0.012 | Nexturastat A -0.001 | vemurafenib 0.053 | [11] 0.075 | [12] 0.049 | givinostat 0.025 | barasertib -0.043

TMEM248 (UniProt Q9NWD8)
inactive: IRAK-1-4 Inhibitor I 0.041 | ibrutinib 0.017 | [1] 0.054 | ralimetinib -0.042 | [2] 0.084 | [3] -0.011 | [4] 0.184 | pinometostat -0.028 | [5] 0.059 | [6] -0.137 | [7] 0.021 | [8] 0.031 | [9] 0.032 | [10] -0.018 | Nexturastat A -0.193 | vemurafenib -0.076 | [11] -0.023 | [12] -0.038 | givinostat 0.11 | barasertib -0.008

TMEM109 (UniProt Q9BVC6)
inactive: IRAK-1-4 Inhibitor I 0.003 | ibrutinib 0.024 | [1] 0.015 | ralimetinib -0.029 | [2] 0.041 | [3] 0.038 | [4] -0.017 | pinometostat -0.073 | [5] -0.001 | [6] 0.06 | [7] 0.033 | [8] 0.017 | [9] -0.016 | [10] 0.022 | Nexturastat A -0.02 | vemurafenib -0.055 | [11] -0.037 | [12] -0.066 | givinostat -0.015 | barasertib -0.004

TMEM168 (UniProt Q9H0V1)
inactive: IRAK-1-4 Inhibitor I 0.029 | ibrutinib 0.007 | [1] -0.015 | ralimetinib 0.029 | [2] -0.042 | [3] -0.005 | [4] -0.031 | pinometostat -0.044 | [5] -0.011 | [6] -0.018 | [7] 0.011 | [8] -0.012 | [9] -0.013 | [10] -0.007 | Nexturastat A -0.22 | vemurafenib 0.015 | [11] -0.044 | [12] -0.065 | givinostat -0.004 | barasertib -0.043

TMEM135 (UniProt Q86UB9)
inactive: IRAK-1-4 Inhibitor I 0.026 | ibrutinib 0 | [1] -0.029 | ralimetinib -0.033 | [2] -0.048 | [3] -0.035 | [4] 0.043 | pinometostat -0.192 | [5] 0.018 | [6] -0.029 | [7] 0.01 | [8] 0.016 | [9] -0.013 | [10] 0.045 | Nexturastat A -0.108 | vemurafenib -0.209 | [11] -0.002 | [12] -0.041 | givinostat 0.012 | barasertib -0.016

TMEM62 (UniProt Q0P6H9)
inactive: IRAK-1-4 Inhibitor I 0.018 | ibrutinib 0.075 | [1] -0.003 | ralimetinib -0.006 | [2] -0.005 | [3] 0.059 | [4] -0.044 | pinometostat -0.006 | [5] 0.018 | [6] 0.048 | [7] 0.013 | [8] -0.042 | [9] 0.086 | [10] -0.039 | Nexturastat A -0.046 | vemurafenib -0.044 | [11] 0.07 | [12] 0.119 | givinostat -0.012 | barasertib -0.016

TMCO1 (UniProt Q9UM00)
inactive: IRAK-1-4 Inhibitor I 0.083 | ibrutinib -0.04 | [1] -0.061 | ralimetinib -0.147 | [2] 0.006 | [3] -0.11 | [4] -0.05 | pinometostat -0.025 | [5] 0 | [6] 0.051 | [7] 0.01 | [8] -0.035 | [9] -0.088 | [10] 0.066 | Nexturastat A -0.161 | vemurafenib 0.081 | [11] -0.18 | [12] -0.031 | givinostat 0.075 | barasertib 0.01

TMEM165 (UniProt Q9HC07)
inactive: IRAK-1-4 Inhibitor I -0.008 | ibrutinib -0.044 | [1] -0.023 | ralimetinib 0 | [2] 0.015 | [3] -0.001 | [4] -0.079 | pinometostat 0.003 | [5] -0.017 | [6] -0.031 | [7] -0.075 | [8] 0.035 | [9] 0.027 | [10] 0.015 | Nexturastat A 0 | vemurafenib -0.138 | [11] 0.026 | [12] 0.179 | givinostat 0.051 | barasertib -0.047

TMX3 (UniProt Q96JJ7)
inactive: IRAK-1-4 Inhibitor I -0.012 | ibrutinib -0.027 | [1] -0.034 | ralimetinib -0.074 | [2] -0.034 | [3] 0.041 | [4] -0.005 | pinometostat 0.043 | [5] 0.019 | [6] 0.026 | [7] 0.074 | [8] -0.006 | [9] -0.008 | [10] -0.027 | Nexturastat A -0.056 | vemurafenib 0.007 | [11] -0.017 | [12] 0.005 | givinostat -0.026 | barasertib 0.019

TLN1 (UniProt Q9Y490)
inactive: IRAK-1-4 Inhibitor I -0.016 | ibrutinib -0.045 | [1] 0.015 | ralimetinib 0.025 | [2] -0.088 | [3] -0.048 | [4] -0.018 | pinometostat -0.021 | [5] -0.007 | [6] 0.031 | [7] 0.042 | [8] -0.055 | [9] 0.029 | [10] 0.072 | Nexturastat A -0.077 | vemurafenib 0.049 | [11] 0.069 | [12] 0.001 | givinostat 0.021 | barasertib 0.021

TMPO isoform 2 (UniProt P42167)
inactive: IRAK-1-4 Inhibitor I 0.131 | ibrutinib -0.032 | [1] -0.101 | ralimetinib -0.129 | [2] -0.146 | [3] -0.097 | [4] 0.096 | pinometostat 0.124 | [5] -0.004 | [6] -0.039 | [7] -0.091 | [8] -0.062 | [9] 0.027 | [10] -0.023 | Nexturastat A 0.088 | vemurafenib -0.095 | [11] -0.107 | [12] -0.004 | givinostat 0.013 | barasertib 0

TMEM30A (UniProt Q9NV96)
inactive: IRAK-1-4 Inhibitor I 0.009 | ibrutinib -0.026 | [1] -0.003 | ralimetinib -0.045 | [2] -0.01 | [3] 0.056 | [4] -0.001 | pinometostat -0.022 | [5] -0.012 | [6] -0.081 | [7] -0.013 | [8] 0.012 | [9] -0.012 | [10] -0.012 | Nexturastat A -0.018 | vemurafenib 0 | [11] 0 | [12] 0.068 | givinostat 0 | barasertib -0.008

TMEM230 isoform 2 (UniProt Q96A57)
inactive: IRAK-1-4 Inhibitor I 0.088 | ibrutinib -0.024 | [1] -0.008 | ralimetinib 0.028 | [2] 0.006 | [3] -0.007 | [4] -0.029 | pinometostat -0.012 | [5] 0.046 | [6] -0.054 | [7] 0.035 | [8] 0.024 | [9] 0.063 | [10] 0.045 | Nexturastat A -0.049 | vemurafenib -0.021 | [11] -0.015 | [12] -0.034 | givinostat -0.013 | barasertib -0.126
